The list shows a part of the results.
molecular target: T1, OsSMF1 (Oryza sativa, UniProt Q6ZLB0 1-436); assay: protein-binding microarray (RPBM); PBS, 2% BSA, 51.3 ng/ul salmon testes DNA, 50 uM zinc acetate, 200 nM TF, 25 C, 1 h; high values mean tight binding; details: protein: recombinant; tags: N-terminal polyhistidine and DsRed monomer fusion (pET32a); chain copies: 2; label: CyDye5-dUTP incorporated in the synthesized complementary strand; 3' TTTTT single-stranded linker to array surface; dsDNA, one strand shown
T1 sequence: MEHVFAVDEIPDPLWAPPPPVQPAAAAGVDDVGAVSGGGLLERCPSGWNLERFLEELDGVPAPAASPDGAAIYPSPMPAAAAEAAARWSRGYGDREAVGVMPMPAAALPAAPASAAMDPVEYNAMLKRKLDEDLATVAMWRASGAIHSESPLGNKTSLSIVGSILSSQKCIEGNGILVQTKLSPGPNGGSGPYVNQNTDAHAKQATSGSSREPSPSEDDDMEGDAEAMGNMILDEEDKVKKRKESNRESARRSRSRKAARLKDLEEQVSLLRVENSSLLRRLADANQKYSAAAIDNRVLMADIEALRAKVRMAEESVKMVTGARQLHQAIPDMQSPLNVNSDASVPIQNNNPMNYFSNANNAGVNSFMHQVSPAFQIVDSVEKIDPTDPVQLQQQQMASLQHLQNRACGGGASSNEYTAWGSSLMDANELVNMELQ
Outline: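 Binding signal here means per-feature fluorescence intensity in arbitrary units. The values were read on an Axon 4000B scanner after a custom Agilent array, double-stranded by primer extension with Cy5-dUTP, was incubated with 200 nM protein at 25 °C for 1 h in PBS with 2% BSA, salmon testes DNA and 50 µM zinc acetate, then washed. The proteins were transcription factors with an N-terminal polyhistidine tag and DsRed, expressed in E. coli BL21-CodonPlus and purified on Ni–NTA.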

Row | Sequence | binding signal
1 | GCCGGCGACGCTGCCGCCGTCACCACTACCGCTGCCGCGGCGGAGTCACCTAGTGCAG | 4140 fluorescence intensity (a.u.)
2 | AGGCTGGAGACATATGACCAAGCAAAGAAGGTACTTAACACGGAGTCACCTAGTGCAG | 3250 fluorescence intensity (a.u.)
3 | TGCTGGACTGGTTAGCACTCGTGTCGATGACAACGAGTGGCGGAGTCACCTAGTGCAG | 3860 fluorescence intensity (a.u.)
4 | CTATTCAGCTTGTTGCGTCGTCGGTCGATCGATCCATCCACGGAGTCACCTAGTGCAG | 3180 fluorescence intensity (a.u.)
5 | CAATGTGCAGGTGGTGCCAACTTGCAACCCAACCGCGGGACGGAGTCACCTAGTGCAG | 3500 fluorescence intensity (a.u.)
6 | TTTGATGCTGCTGACTCAGCATCCGCTACGCTGAAGGGAACGGAGTCACCTAGTGCAG | 18500 fluorescence intensity (a.u.)
7 | TAATCCTTATTAAATGAGGTGTACGTGAGTAGGAAGATGGCGGAGTCACCTAGTGCAG | 4000 fluorescence intensity (a.u.)
8 | CGGAGTGGCCAGCGTGGTGACAAGCGCGACGTGGCGGCTTCGGAGTCACCTAGTGCAG | 6830 fluorescence intensity (a.u.)
9 | TAAATGACGTCAGCCAAACGGTATCACCATTCTTCAGACTCGGAGTCACCTAGTGCAG | 12000 fluorescence intensity (a.u.)
10 | CAAATGCCACCTAAGCGCCACGTCAACCCCATAGACTAGGCGGAGTCACCTAGTGCAG | 34200 fluorescence intensity (a.u.)
11 | CGTCGTGCCAGTGACAGCGTGGGCCATCGTGTTTTGGGCACGGAGTCACCTAGTGCAG | 5180 fluorescence intensity (a.u.)
12 | ATCTAGCTTCATCTTATGACATCAACAACTTTTCTGATTGCGGAGTCACCTAGTGCAG | 4730 fluorescence intensity (a.u.)
13 | TTACAGATAATTACATCACTATCGGCTGGATGAGTCTTTCCGGAGTCACCTAGTGCAG | 3660 fluorescence intensity (a.u.)
14 | CAGTAGTTGACTTGAGACGAAGATGAACACAGGCCTAATACGGAGTCACCTAGTGCAG | 21600 fluorescence intensity (a.u.)
15 | CCTGGTGGGTTGCGTGCGCGAGATGGTGGCGCTCATGGTGCGGAGTCACCTAGTGCAG | 4800 fluorescence intensity (a.u.)
16 | CTCTAGTCAACGCGCCCACGTGGACCAGTTGTTCATCGAGCGGAGTCACCTAGTGCAG | 12400 fluorescence intensity (a.u.)
17 | CACCACCCCTCGCCGCCGCAGCGCCGCCACGTCCTCGCCGCGGAGTCACCTAGTGCAG | 14900 fluorescence intensity (a.u.)
18 | CCAACCATGCCACGCTGGACTCCGACCCGACCCCGACCCGCGGAGTCACCTAGTGCAG | 7380 fluorescence intensity (a.u.)
19 | CACTAAACGTATCGTCGACAATTAGATACCTATGATGACTCGGAGTCACCTAGTGCAG | 5080 fluorescence intensity (a.u.)
20 | TACTAGCAGTTGTGCCATGAATATTCACCAGTCAGCATCCCGGAGTCACCTAGTGCAG | 3170 fluorescence intensity (a.u.)
21 | CATGCATCATTATACTAGTCGTCGTCATATAAATAGCGGACGGAGTCACCTAGTGCAG | 3760 fluorescence intensity (a.u.)

Row | Sequence | binding signal
22 | CACCTAAGTAAATGATTTCTGAACACGCCAGCCTGATGTACGGAGTCACCTAGTGCAG | 3890 fluorescence intensity (a.u.)
23 | TTCGAGCTAGTACTAACTGCTATCGTCATGACCCGGGTGACGGAGTCACCTAGTGCAG | 3810 fluorescence intensity (a.u.)
24 | TCGAATCAACATGTTTTCATGAATTATGAGCTGTCAATGACGGAGTCACCTAGTGCAG | 5640 fluorescence intensity (a.u.)
25 | GCTCGAATTGCCACGTAAGCGCCACGTCAATGCCACGTCACGGAGTCACCTAGTGCAG | 65500 fluorescence intensity (a.u.)
26 | GCATCGCCGTCCCAGGAACTTGGACACGTCGCCTCTCGCCCGGAGTCACCTAGTGCAG | 5130 fluorescence intensity (a.u.)
27 | ATGCCCTTATGCAGTCCACTGCCACATGTTAGATCCGAATCGGAGTCACCTAGTGCAG | 3800 fluorescence intensity (a.u.)
28 | CACCGCCCACCGTCGGCCCGCGTCATCCCTCTAAGCTCAGCGGAGTCACCTAGTGCAG | 7580 fluorescence intensity (a.u.)
29 | GGCCGCCACCACCGCCGTACCCCTGCGGGTGGCCGACGATCGGAGTCACCTAGTGCAG | 3220 fluorescence intensity (a.u.)
30 | GTGTGTGTGTGTGCTGCGTGTGCGTGTGCGCGCGCGTGCCCGGAGTCACCTAGTGCAG | 5210 fluorescence intensity (a.u.)
31 | ATTAATAAATAACACGTATATAAAATATAATATGAATATTCGGAGTCACCTAGTGCAG | 3950 fluorescence intensity (a.u.)
32 | GTTTAGCCAGAATTCAGCCAGCTCACGCAACGCCAACTCACGGAGTCACCTAGTGCAG | 4840 fluorescence intensity (a.u.)
33 | AGGATGACATGTGGGTCCCACTTGTCAATGGGTCCCCATGCGGAGTCACCTAGTGCAG | 4000 fluorescence intensity (a.u.)
34 | AGGACCAAATGACATGGTACATTTGGGGAGATTTGGTTTGCGGAGTCACCTAGTGCAG | 3440 fluorescence intensity (a.u.)
35 | GCTGCGGCAGCAATGCGCATCAACCGTGGTGGCAACGACACGGAGTCACCTAGTGCAG | 17600 fluorescence intensity (a.u.)
36 | GAGAGATGGGGAGAGATGAGGAAGAAGGGTAGGGTGGAGACGGAGTCACCTAGTGCAG | 4010 fluorescence intensity (a.u.)
37 | AGAGCGATCTGATCGACCGAGTTGTGTCATGCCGTACTACCGGAGTCACCTAGTGCAG | 4330 fluorescence intensity (a.u.)
38 | TACTTATTGTTTATGAGAAATTTTAGAAATAATTGTATTTCGGAGTCACCTAGTGCAG | 3260 fluorescence intensity (a.u.)
39 | CCGAGGATATGTGTGACCCACATGTCAGTAGAACTGCTGACGGAGTCACCTAGTGCAG | 3800 fluorescence intensity (a.u.)
40 | AGTTTTGCTATTATGCCACCGCCGCCACGCTTTTGCTGATCGGAGTCACCTAGTGCAG | 3560 fluorescence intensity (a.u.)
41 | ACTACAAGCCACGAATGTGACGGAAGCTTCTACTACTCGCCGGAGTCACCTAGTGCAG | 3710 fluorescence intensity (a.u.)
42 | TCAAGAAAACATGCACACCGTGCACACGTACGAAGCCGGTCGGAGTCACCTAGTGCAG | 3270 fluorescence intensity (a.u.)
